Data: PubChem BioAssay (Tox21)
Where “and” joins values, the source holds several entries; their conditions need not be identical. Identical values can stand only once. This list was built around the results that the source calls inconclusive (neither active nor inactive); the mix of calls is not that of the screen. For some assays here: Potencies beside an inconclusive call are fits to weak or partial responses and may not hold up. More than one record can exist for a structure, and the calls need not agree. Calls of active or inactive are those of the source. Calls come from the whole dose curve; as a rule, active = well fitted curve in the direction sought with a large enough effect in the repeat runs; inconclusive = weak or mixed curves; inactive = no such curve, though single readings can be large; an effect the other way counts as inactive or inconclusive.

By UniProt entry, the sequences of proteins in these tests, tags left out. Where a name states a change or a piece, a line headed by the entry shows the natural chain unless it says otherwise.
UniProt P10635, whole entry, looked up: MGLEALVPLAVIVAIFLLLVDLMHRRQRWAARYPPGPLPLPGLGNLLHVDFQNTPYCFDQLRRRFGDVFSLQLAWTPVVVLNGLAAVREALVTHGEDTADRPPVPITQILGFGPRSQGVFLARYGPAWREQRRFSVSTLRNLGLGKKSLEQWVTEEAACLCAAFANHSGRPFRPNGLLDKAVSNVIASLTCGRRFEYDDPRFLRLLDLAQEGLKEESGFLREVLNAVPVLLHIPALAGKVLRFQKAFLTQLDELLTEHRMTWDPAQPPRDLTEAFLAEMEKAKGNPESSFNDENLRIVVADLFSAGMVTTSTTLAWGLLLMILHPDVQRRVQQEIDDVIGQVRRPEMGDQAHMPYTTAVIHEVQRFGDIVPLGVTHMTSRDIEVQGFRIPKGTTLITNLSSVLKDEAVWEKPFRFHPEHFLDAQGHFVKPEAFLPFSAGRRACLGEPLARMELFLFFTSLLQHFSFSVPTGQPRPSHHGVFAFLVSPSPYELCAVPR
UniProt P33261, whole entry, looked up: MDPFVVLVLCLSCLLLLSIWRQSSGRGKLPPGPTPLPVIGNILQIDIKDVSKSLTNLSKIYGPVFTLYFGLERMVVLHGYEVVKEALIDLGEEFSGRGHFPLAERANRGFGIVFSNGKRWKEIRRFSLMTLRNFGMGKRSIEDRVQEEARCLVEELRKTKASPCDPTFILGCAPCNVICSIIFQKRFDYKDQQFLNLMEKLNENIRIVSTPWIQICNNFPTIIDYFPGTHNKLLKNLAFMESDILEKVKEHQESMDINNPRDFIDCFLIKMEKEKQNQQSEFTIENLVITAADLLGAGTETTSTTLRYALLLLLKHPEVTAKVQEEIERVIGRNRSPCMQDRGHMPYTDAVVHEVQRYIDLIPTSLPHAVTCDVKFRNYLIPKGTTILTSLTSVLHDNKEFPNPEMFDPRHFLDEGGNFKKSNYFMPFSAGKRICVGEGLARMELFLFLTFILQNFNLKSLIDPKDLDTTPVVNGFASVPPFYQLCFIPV
UniProt P11712, whole entry, looked up: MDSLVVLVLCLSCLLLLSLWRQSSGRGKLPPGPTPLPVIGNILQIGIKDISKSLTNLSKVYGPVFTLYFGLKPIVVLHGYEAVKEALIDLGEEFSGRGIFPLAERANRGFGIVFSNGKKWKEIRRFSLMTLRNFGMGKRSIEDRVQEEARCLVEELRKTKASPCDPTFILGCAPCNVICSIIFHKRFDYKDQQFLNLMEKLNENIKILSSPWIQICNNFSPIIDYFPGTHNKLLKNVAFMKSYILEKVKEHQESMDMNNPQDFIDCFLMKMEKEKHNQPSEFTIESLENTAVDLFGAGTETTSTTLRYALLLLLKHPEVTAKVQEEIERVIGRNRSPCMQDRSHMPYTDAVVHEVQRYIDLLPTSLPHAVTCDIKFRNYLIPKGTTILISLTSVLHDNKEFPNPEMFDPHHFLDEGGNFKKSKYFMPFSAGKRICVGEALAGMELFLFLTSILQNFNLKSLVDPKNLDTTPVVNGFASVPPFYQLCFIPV
UniProt P05177, whole entry, looked up: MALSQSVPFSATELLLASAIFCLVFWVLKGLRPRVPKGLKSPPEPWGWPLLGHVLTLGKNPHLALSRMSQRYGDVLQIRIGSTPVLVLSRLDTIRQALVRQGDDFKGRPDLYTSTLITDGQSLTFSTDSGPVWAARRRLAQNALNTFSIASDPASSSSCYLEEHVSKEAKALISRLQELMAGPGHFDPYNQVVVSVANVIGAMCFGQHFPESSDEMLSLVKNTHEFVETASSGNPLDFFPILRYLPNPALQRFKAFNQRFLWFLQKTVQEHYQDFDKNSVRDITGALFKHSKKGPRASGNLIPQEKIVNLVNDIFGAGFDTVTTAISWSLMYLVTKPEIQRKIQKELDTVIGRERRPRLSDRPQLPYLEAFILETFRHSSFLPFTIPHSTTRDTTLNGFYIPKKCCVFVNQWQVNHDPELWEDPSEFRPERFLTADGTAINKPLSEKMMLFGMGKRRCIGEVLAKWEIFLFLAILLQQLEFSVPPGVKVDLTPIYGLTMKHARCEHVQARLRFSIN
UniProt Q12809: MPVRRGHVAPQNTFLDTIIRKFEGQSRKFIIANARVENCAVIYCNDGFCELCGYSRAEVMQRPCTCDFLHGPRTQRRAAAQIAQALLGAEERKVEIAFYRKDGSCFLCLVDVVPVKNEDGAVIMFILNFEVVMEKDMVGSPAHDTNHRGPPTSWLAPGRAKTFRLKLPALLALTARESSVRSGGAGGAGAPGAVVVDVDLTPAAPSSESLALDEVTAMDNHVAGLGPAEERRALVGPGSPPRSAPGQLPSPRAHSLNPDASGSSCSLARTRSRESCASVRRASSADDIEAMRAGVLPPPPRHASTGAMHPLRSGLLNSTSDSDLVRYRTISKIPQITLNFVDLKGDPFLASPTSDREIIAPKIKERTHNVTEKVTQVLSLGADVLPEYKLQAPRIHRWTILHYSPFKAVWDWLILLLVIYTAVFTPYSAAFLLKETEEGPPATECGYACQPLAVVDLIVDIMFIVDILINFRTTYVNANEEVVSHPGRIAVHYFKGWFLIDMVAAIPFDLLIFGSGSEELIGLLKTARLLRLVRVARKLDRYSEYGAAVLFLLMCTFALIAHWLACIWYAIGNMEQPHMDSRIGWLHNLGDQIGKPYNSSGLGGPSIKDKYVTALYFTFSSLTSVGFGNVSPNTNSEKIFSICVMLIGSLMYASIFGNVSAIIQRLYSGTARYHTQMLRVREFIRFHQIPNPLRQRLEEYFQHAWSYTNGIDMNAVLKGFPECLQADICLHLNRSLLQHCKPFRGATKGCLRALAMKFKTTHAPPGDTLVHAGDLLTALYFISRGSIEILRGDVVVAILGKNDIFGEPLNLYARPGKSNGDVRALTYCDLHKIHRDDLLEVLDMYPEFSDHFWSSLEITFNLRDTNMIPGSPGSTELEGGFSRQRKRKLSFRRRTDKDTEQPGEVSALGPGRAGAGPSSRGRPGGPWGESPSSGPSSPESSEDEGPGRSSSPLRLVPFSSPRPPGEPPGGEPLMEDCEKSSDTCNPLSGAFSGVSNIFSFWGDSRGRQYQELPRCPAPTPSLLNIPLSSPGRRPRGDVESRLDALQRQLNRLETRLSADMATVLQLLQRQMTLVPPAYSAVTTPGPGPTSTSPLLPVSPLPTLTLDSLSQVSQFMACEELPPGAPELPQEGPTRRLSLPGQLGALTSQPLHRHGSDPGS
UniProt P08684, whole entry, looked up: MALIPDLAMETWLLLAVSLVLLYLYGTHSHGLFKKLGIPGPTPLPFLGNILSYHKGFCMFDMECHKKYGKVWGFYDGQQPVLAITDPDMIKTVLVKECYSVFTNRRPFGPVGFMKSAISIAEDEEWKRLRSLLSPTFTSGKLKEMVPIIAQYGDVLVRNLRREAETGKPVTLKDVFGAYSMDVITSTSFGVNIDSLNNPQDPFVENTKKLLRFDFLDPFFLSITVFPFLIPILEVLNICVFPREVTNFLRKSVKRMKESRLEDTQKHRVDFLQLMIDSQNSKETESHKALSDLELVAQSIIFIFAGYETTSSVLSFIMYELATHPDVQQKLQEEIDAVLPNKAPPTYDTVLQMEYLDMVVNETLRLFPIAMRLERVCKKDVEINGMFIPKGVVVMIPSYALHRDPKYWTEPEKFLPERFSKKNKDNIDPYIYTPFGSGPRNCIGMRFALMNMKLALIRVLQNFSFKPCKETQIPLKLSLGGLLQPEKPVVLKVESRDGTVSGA

Key:
[1] = target: Cytochrome P450 2D6 (Homo sapiens) (UniProt P10635); assay: Cytochrome P450 Family 2 Subfamily D Member 6 (CYP2D6) small molecule antagonists: luciferase reporter qHTS assay (AID 1671196); note: nearly all actives have a fitted effect of over 50% in size; note: potency is the fitted concentration of half-maximal effect; for activity change, negative = inhibition: series mostly up to about 120 µM; % is set by controls: 0 for no effect and ±100 for the full control effect
Outline: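 Luminogenic proluciferin substrate, CYP2D6 enzyme; 10 min RT preincubation with compound, NADPH regeneration system added, 1 h RT. Stop/detection reagent, 20 min RT, luminescence read (RLU). Signal proportional to CYP activity.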

[2] = target: Cytochrome P450 2C19 (Homo sapiens) (UniProt P33261); assay: Cytochrome P450 Family 2 Subfamily C Member 19 (CYP2C19) small molecule antagonists: luciferase reporter qHTS assay (AID 1671197); note: nearly all actives have a fitted effect of over 65% in size; note: potency is the fitted concentration of half-maximal effect; for activity change, negative = inhibition: series mostly up to about 120 µM; % is set by controls: 0 for no effect and ±100 for the full control effect
Outline: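 CYP2C19 P450-Glo, 1536-well qHTS. Cpd + enzyme/proluciferin substrate 10 min RT; + NADPH regen, 37C 1 h; stop with luciferin detection reagent, 20 min RT, luminescence (RLU). Pos ctrl ketoconazole.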

[3] = target: Cytochrome P450 2C9 (Homo sapiens) (UniProt P11712); assay: Cytochrome P450 Family 2 Subfamily C Member 9 (CYP2C9) small molecule antagonists: luciferase reporter qHTS assay (AID 1671198); note: nearly all actives have a fitted effect of over 50% in size; note: potency is the fitted concentration of half-maximal effect; for activity change, negative = inhibition: series mostly up to about 120 µM; % is set by controls: 0 for no effect and ±100 for the full control effect
Outline: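 P450-Glo proluciferin substrate with CYP2C9 enzyme; 10 min RT preincubation, then NADPH regeneration 1 h at 37C; luciferin detection reagent 20 min RT, luminescence in relative luminescence units.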

[4] = target: Cytochrome P450 1A2 (Homo sapiens) (UniProt P05177); assay: Cytochrome P450 Family 1 Subfamily A Member 2 (CYP1A2) small molecule antagonists: luciferase reporter qHTS assay (AID 1671199); note: nearly all actives have a fitted effect of over 50% in size; note: potency is the fitted concentration of half-maximal effect; for activity change, negative = inhibition: series mostly up to about 120 µM; % is set by controls: 0 for no effect and ±100 for the full control effect
Outline: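 Luminescence readout (relative luminescence units) after luciferin detection reagent, 20 min RT. Preceded by 1 h room-temperature CYP1A2 reaction with NADPH regeneration solution following 10 min compound preincubation with enzyme and proluciferin substrate. Furafylline positive control.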

[5] = target: Voltage-gated inwardly rectifying potassium channel KCNH2 (Homo sapiens) (UniProt Q12809); assay: Human Ether-a-go-go-Related Gene (hERG) channel small molecule antagonists: fluorescence cell-based qHTS assay (AID 1671200);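 note: hERG-expressing U2OS cells given a thallium stimulus after FluxOR II dye loading; series mostly up to about 77 µM; % is set by controls: 0 for no effect and ±100 for the full control effect; nearly all actives have a fitted effect of over 50% in size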
Outline: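 Measured: Tl+ flux via fluorescence (480/540 nm) in hERG-expressing U2OS cells after 1 h dye loading at room temperature.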

[6] = target: Cytochrome P450 3A4 (Homo sapiens) (UniProt P08684); assay: Cytochrome P450 Family 3 Subfamily A Member 4 (CYP3A4) small molecule antagonists: luciferase reporter qHTS assay (AID 1671201)
Outline: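 Setup: enzyme-substrate mix, compound pin transfer, 10 min RT. Reaction: NADPH regeneration solution, 1 h RT. Readout: detection reagent stops turnover, luminescence measured after 20 min, expressed in relative luminescence units.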

## CCCCCC(=O)OCCc1ccccc1
[1]
  Potency: inactive
[2]
  Potency: inconclusive: 79.6 µM [inhibitor, single point]
[3]
  Potency: inconclusive: 63.3 µM [inhibitor, partial curve, poor fit]
[4]
  Potency: inconclusive: 39.9 µM [inhibitor, partial curve]

## O=Cc1ccc(Cl)cc1
[1]
  Potency: inconclusive: 28.1 µM [inhibitor, partial curve, poor fit]
[2]
  Potency: inconclusive: 35.4 µM [inhibitor, single point]
[3]
  Potency: inactive
[4]
  Potency: inconclusive: 70.6 µM [inhibitor, partial curve, poor fit]

## CC1CCc2cc(F)cc3c(=O)c(C(=O)O)cn1c23 (centres undefined)
[1]
  Potency: inactive

## Nc1ccc(C(=O)Oc2ccccc2)c(O)c1
[1]
  Potency: inconclusive: 38.9 µM [inhibitor, single point]
[2]
  Potency: inconclusive: 43.6 µM [inhibitor, single point]
[3]
  Potency: active: 27.5 µM

## OCCSc1ccccc1
[1]
  Potency: inactive

## CN(C)CCC(c1ccccc1)c1ccccn1 (centres undefined)
[1]
  Potency: inconclusive: 15.5 µM [inhibitor, partial curve]
[2]
  Potency: inconclusive: 79.9 µM [inhibitor, single point]

## NC(=O)Nc1ccccc1
[1]
  Potency: inactive
[2]
  Potency: inactive
[3]
  Potency: inactive

## CC(=O)Oc1cc(C(C)C)c(OCCN(C)C)cc1C
[1]
  Potency: active: 15.5 µM

## CCCOc1ccccc1-c1nc2n[nH]nc2c(=O)[nH]1
[1]
  Potency: inactive

## O=C(O)c1ccc(O)c(O)c1
[1]
  Potency: inactive
[2]
  Potency: active: 79.6 µM
[3]
  Potency: active: 35.5 µM

## Cc1ccc(O)cn1
[1]
  Potency: inconclusive: 89.4 µM [inhibitor, partial curve, poor fit]

## COP(=O)(O)OP(=O)(O)OC
[1]
  Potency: inconclusive: 35.6 µM [inhibitor, partial curve]

## CCCCCCCCCCCCCCCCCCCl
[1]
  activity change, negative = inhibition: inactive: -4.65% [at 10.5 µM]
[2]
  Potency: inconclusive: 5.5 µM [inhibitor, single point]

## O=C(O)C(Cc1cc(I)c(O)c(I)c1)c1ccccc1 (centres undefined)
[1]
  Potency: inconclusive: 38.9 µM [inhibitor, single point]

## C=CC(=O)OCCCl
[1]
  Potency: inconclusive: 57.7 µM [inhibitor, partial curve]

## Cc1ccc2sc3cccc(C)c3c2c1
[1]
  Potency: inconclusive: 50.2 µM [inhibitor, full curve, poor fit]

## CCCCCCCCC/C=C/CC1CC(=O)OC1=O (centres undefined)
[1]
  Potency: inactive and active: 39.9 µM

## O=C(OCCOCCOCCOC(=O)c1ccccc1)c1ccccc1
[1]
  Potency: inconclusive: 56.4 µM [inhibitor]

## O=C1CCC(=O)O1
[1]
  Potency: inconclusive: 80.2 µM [inhibitor, partial curve, poor fit]

## CCOC(=O)CC(=O)c1ccccc1
[1]
  Potency: inconclusive: 79.6 µM [inhibitor, partial curve, poor fit]
[2]
  Potency: active: 39.9 µM

## c1cnc2cc3c(cc2n1)C1CNCC3C1
[1]
  Potency: inactive
[2]
  Potency: inactive

## O=C(O)c1cc(C(=O)O)c(C(=O)O)cc1C(=O)O
[1]
  Potency: inactive

## Cc1ccc2ncccc2c1
[1]
  Potency: inconclusive: 89.4 µM [inhibitor, single point]
[2]
  Potency: inconclusive: 6.33 µM [inhibitor, partial curve, poor fit]
[3]
  Potency: inconclusive: 71 µM [inhibitor, partial curve] and inconclusive: 79.6 µM [inhibitor, single point]

## NC(N)=NC(=O)Cc1c(Cl)cccc1Cl
[1]
  Potency: inconclusive: 15.5 µM [inhibitor, partial curve]

## CN(C)[C@@H]1C(=O)C(C(=O)NCN2CCCC2)=C(O)[C@@]2(O)C(=O)C3=C(O)c4c(O)cccc4[C@@](C)(O)C3C[C@@H]12 (some centres undefined)
[1]
  Potency: inconclusive: 34.7 µM [inhibitor, single point]
[2]
  Potency: inconclusive: 38.9 µM [inhibitor, single point]

## CC(C)OC(=O)CCCCC(=O)OC(C)C
[1]
  Potency: inconclusive: 89.6 µM [inhibitor, single point]

## CC(C)S
[1]
  Potency: inconclusive: 71.8 µM [inhibitor, partial curve]

## O=C(O)[C@@H](O)[C@H](O)[C@H](O)[C@@H](O)C(=O)O
[1]
  Potency: inactive

## CCCCOCCOCCOCCCC
[1]
  Potency: inactive

## O=C(O)c1ccc2cc(O)ccc2c1
[1]
  Potency: inconclusive: 62.4 µM [inhibitor, partial curve]

## CCOC(=O)[C@H](C)O
[1]
  Potency: inactive

## CCCCCCCC(=O)OCC(O)CO (centres undefined)
[1]
  Potency: inconclusive: 43.6 µM [inhibitor, single point]
[2]
  Potency: inconclusive: 9.77 µM [inhibitor, single point]
[3]
  Potency: inconclusive: 50.2 µM [inhibitor, partial curve, poor fit]
[4]
  Potency: inconclusive: 71 µM [inhibitor, partial curve]

## C[N+](C)(C)CC(O)CC(=O)[O-] (centres undefined)
[1]
  Potency: inconclusive: 43.6 µM [inhibitor, single point]
[2]
  Potency: inactive
[5]
  Potency: inactive

## O=C(O)c1ccc(CO)o1
[1]
  Potency: active: 18.2 µM
[3]
  Potency: inactive

## O=C1C=CC(=O)O1
[1]
  Potency: inconclusive: 94 µM [inhibitor, partial curve, poor fit]
[3]
  Potency: inactive

## O=C(N[C@@H](Cc1ccccc1)[C@@H](O)C(=O)N1C[C@@H](O)[C@@H](O)C1)c1cc2cc(Cl)ccc2[nH]1
[1]
  Potency: inconclusive: 39.9 µM [inhibitor, partial curve]
[2]
  Potency: active: 39.9 µM
[6]
  Potency: inconclusive: 20 µM [inhibitor, full curve]

## c1ccc(SCCSc2ccccc2)cc1
[1]
  Potency: inconclusive: 35.3 µM [inhibitor, partial curve]
[3]
  Potency: inconclusive: 31.4 µM [inhibitor, partial curve]

## CCOC(=O)C1=NN(c2ccc(Cl)cc2Cl)C(C)(C(=O)OCC)C1 (centres undefined)
[1]
  Potency: active: 39.9 µM
[2]
  Potency: active: 2.52 µM
[4]
  Potency: inconclusive: 63.3 µM [inhibitor, partial curve]

## Nc1ccc(-c2ccc(F)cc2)cc1
[1]
  Potency: inconclusive: 35.6 µM [inhibitor, partial curve]
[3]
  Potency: active: 14.2 µM

## CCCn1cnc2c1c(=O)n(CCCCC(C)=O)c(=O)n2C
[1]
  Potency: inconclusive: 43.6 µM [inhibitor, single point]
[2]
  Potency: inconclusive: 43.6 µM [inhibitor, single point]
[4]
  Potency: inconclusive: 14.4 µM [inhibitor, partial curve]

## CC(C)=CC=O
[1]
  Potency: inactive
[2]
  Potency: inactive
[4]
  Potency: inconclusive: 38 µM [inhibitor, partial curve]

## CC(=O)OCC(CCn1cnc2cnc(N)nc21)COC(C)=O
[1]
  Potency: inconclusive: 43.6 µM [inhibitor, single point]
[3]
  Potency: inactive
[4]
  Potency: inconclusive: 20.4 µM [inhibitor, partial curve, poor fit]

## CCN1CCCC1=O
[1]
  Potency: inconclusive: 62.9 µM [inhibitor, partial curve]
[3]
  Potency: inconclusive: 39.7 µM [inhibitor, partial curve, poor fit]

## O=C1CCCCCO1
[1]
  Potency: inconclusive: 63.8 µM [inhibitor, partial curve]
[2]
  Potency: inactive
[3]
  Potency: inactive
[4]
  Potency: active: 35.9 µM

## Nc1cc(S(=O)(=O)O)ccc1O
[1]
  Potency: inconclusive: 35.3 µM [inhibitor, full curve]
[2]
  Potency: inconclusive: 88.7 µM [inhibitor, single point]
[4]
  Potency: inactive
[5]
  Potency: inactive

## CCC(=O)OC(C)(C)C1CC=C(C)CC1 (centres undefined)
[1]
  Potency: inconclusive: 39.9 µM [inhibitor, partial curve]
[2]
  Potency: inconclusive: 79.6 µM [inhibitor, single point]
[3]
  Potency: inconclusive: 71 µM [inhibitor]
[4]
  Potency: inconclusive: 35.6 µM [inhibitor, partial curve, poor fit]
[6]
  Potency: inconclusive: 89.4 µM [inhibitor, single point]

## CC(C)(C#N)Nc1nc(Cl)nc(NC2CC2)n1
[1]
  Potency: inconclusive: 71 µM [inhibitor, partial curve, poor fit]
[2]
  Potency: inconclusive: 79.6 µM [inhibitor, single point]
[4]
  Potency: active: 39.9 µM

## CCCCC1CCC(=O)O1 (centres undefined)
[1]
  Potency: inactive
[3]
  Potency: inactive

## CC(=O)C=O
[1]
  Potency: inactive
[3]
  Potency: inactive

## C[N+]1(CC2COC(c3ccccc3)(c3ccccc3)O2)CCCCC1 (centres undefined)
[1]
  Potency: active: 1.69 µM
[3]
  Potency: inconclusive: 10.7 µM [inhibitor, full curve]

## COC(=O)C(C)(C)C
[1]
  Potency: inactive
[3]
  Potency: inconclusive: 36.1 µM [inhibitor, partial curve]

## CCOC(=O)/C=C/c1ccccc1
[1]
  Potency: inconclusive: 63.3 µM [inhibitor, partial curve]
[3]
  Potency: inconclusive: 44.8 µM [inhibitor, partial curve, poor fit]

## CC(C)C(=O)Nc1cccc(C2CN3CCSC3=N2)c1 (centres undefined)
[1]
  Potency: inconclusive: 27.5 µM [inhibitor, partial curve, poor fit]
[3]
  Potency: inconclusive: 15.5 µM [inhibitor, partial curve]
[4]
  Potency: inactive

## Cn1c(NCCN(CCO)CCCc2ccc([N+](=O)[O-])cc2)cc(=O)n(C)c1=O
[1]
  Potency: inconclusive: 30.9 µM [inhibitor, partial curve]
[3]
  Potency: inactive

## CCc1cccc(C)c1N(C(=O)C(=O)O)C(C)COC (centres undefined)
[1]
  Potency: inconclusive: 71 µM [inhibitor, single point]
[3]
  Potency: inconclusive: 35.6 µM [inhibitor, partial curve]

## C#CC(C)N(C)C(=O)Nc1ccc(Cl)cc1 (centres undefined)
[1]
  Potency: inconclusive: 31.7 µM [inhibitor, partial curve]
[3]
  Potency: active: 4.47 µM

## CCOc1nc(F)cc2nc(S(=O)(=O)Nc3c(Cl)cccc3C(=O)OC)nn12
[1]
  Potency: inactive
[3]
  Potency: inconclusive: 56.4 µM [inhibitor, partial curve]
